Article PMC10363310
Results are given in words; binding and its absence hold for the method and conditions named. In cells and extracts the contact can be indirect. Some binding calls cover weakened binding; strength is not graded here.

Biological target: Epidermal growth factor receptor (EGFR) (human (endogenous in HCT116)) (UniProt P00533)
Assay: co-IP; total protein of HCT116 cells; 1 ug TNNT2 antibody or EGFR antibody (IgG as negative control) overnight at 4 C, protein A agarose beads, washed 3 times, western blot

binding: binds
Substance: Cardiac troponin T (TNNT2) (from UniProt P45379 1-298)
